Source: PMC3682968
Results are given in words; binding and its absence hold for the method and conditions named. In cells and extracts the contact can be indirect. Some results given as binding are weak or reduced against the parent protein; the word gives no strength. Sequences can lack the tags named with a protein. One block for each binder: values may come before it.

Sequences of proteins named here, by UniProt entry; tags and fusion partners are left off.
UniProt P68104: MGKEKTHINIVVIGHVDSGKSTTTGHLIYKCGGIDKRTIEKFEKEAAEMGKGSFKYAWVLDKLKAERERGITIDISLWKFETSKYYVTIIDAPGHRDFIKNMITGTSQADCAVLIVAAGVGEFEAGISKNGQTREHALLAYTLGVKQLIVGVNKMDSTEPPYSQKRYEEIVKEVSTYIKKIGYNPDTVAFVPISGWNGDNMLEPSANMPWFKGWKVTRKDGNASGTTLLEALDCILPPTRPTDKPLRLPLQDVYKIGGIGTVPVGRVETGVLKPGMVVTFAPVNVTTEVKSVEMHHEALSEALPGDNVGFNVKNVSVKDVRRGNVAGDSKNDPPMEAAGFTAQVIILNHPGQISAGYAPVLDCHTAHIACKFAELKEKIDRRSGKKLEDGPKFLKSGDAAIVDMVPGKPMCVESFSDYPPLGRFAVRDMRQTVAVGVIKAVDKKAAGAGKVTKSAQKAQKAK

Tests used:
[1] = target: HA-eEF1A1 (eukaryotic translation elongation factor 1-alpha 1) (UniProt P68104); experiment: co-IP; co-transfected HeLa cells treated with camptothecin (0.2 µM) for 18 hours; whole cell extracts immunoprecipitated with anti-HA (12CA5) antibody; immunoblot with anti-Flag and anti-HA (HA.11)
[2] = target: T7-eEF1A1 (eukaryotic translation elongation factor 1-alpha 1) (UniProt P68104); experiment: co-IP; co-transfected SaOS-2 cells, whole cell extracts immunoprecipitated with anti-T7 antibody; data not shown
[3] = target: T7-eEF1A1 (eukaryotic translation elongation factor 1-alpha 1) (UniProt P68104); experiment: co-IP; co-transfected HeLa (Fig. 1A) or SaOS-2 treated with camptothecin 0.2 µM for 18 hours (Fig. 1B); whole cell extracts in EBC buffer (50 mM Tris pH 8, 120 mM NaCl, 0.5% Nonidet P-40) immunoprecipitated with anti-T7 antibody and protein A-sepharose, 2 h at 4°C; immunoblot with anti-HA

binding [1]: binds
B1: Flag-TAp63α (protein, UniProt Q9H3D4-1 1-680)
chain: MNFETSRCATLQYCPDPYIQRFVETPAHFSWKESYYRSTMSQSTQTNEFLSPEVFQHIWDFLEQPICSVQPIDLNFVDEPSEDGATNKIEISMDCIRMQDSDLSDPMWPQYTNLGLLNSMDQQIQNGSSSTSPYNTDHAQNSVTAPSPYAQPSSTFDALSPSPAIPSNTDYPGPHSFDVSFQQSSTAKSATWTYSTELKKLYCQIAKTCPIQIKVMTPPPQGAVIRAMPVYKKAEHVTEVVKRCPNHELSREFNEGQIAPPSHLIRVEGNSHAQYVEDPITGRQSVLVPYEPPQVGTEFTTVLYNFMCNSSCVGGMNRRPILIIVTLETRDGQVLGRRCFEARICACPGRDRKADEDSIRKQQVSDSTKNGDGTKRPFRQNTHGIQMTSIKKRRSPDDELLYLPVRGRETYEMLLKIKESLELMQYLPQHTIETYRQQQQQQHQHLLQKQTSIQSPSSYGNSSPPLNKMNSMNKLPSVSQLINPQQRNALTPTTIPDGMGANIPMMGTHMPMAGDMNGLSPTQALPPPLSMPSTSHCTPPPPYPTDCSIVSFLARLGCSSCLDYFTTQGLTTIYQIEHYSMDDLASLKIPEQFRHAIWKGILDHRQLHEFSSPSHLLRTPSSASTVSVGSSETRGERVIDAVRFTLRQTISFPPRDEWNDFNFDMDARRNKQQRIKEEGE

binding [2]: binds | binding [3]: binds
B2: HA-TAp73α (protein, UniProt O15350 1-636)
chain: MAQSTATSPDGGTTFEHLWSSLEPDSTYFDLPQSSRGNNEVVGGTDSSMDVFHLEGMTTSVMAQFNLLSSTMDQMSSRAASASPYTPEHAASVPTHSPYAQPSSTFDTMSPAPVIPSNTDYPGPHHFEVTFQQSSTAKSATWTYSPLLKKLYCQIAKTCPIQIKVSTPPPPGTAIRAMPVYKKAEHVTDVVKRCPNHELGRDFNEGQSAPASHLIRVEGNNLSQYVDDPVTGRQSVVVPYEPPQVGTEFTTILYNFMCNSSCVGGMNRRPILIIITLEMRDGQVLGRRSFEGRICACPGRDRKADEDHYREQQALNESSAKNGAASKRAFKQSPPAVPALGAGVKKRRHGDEDTYYLQVRGRENFEILMKLKESLELMELVPQPLVDSYRQQQQLLQRPSHLQPPSYGPVLSPMNKVHGGMNKLPSVNQLVGQPPPHSSAATPNLGPVGPGMLNNHGHAVPANGEMSSSHSAQSMVSGSHCTPPPPYHADPSLVSFLTGLGCPNCIEYFTSQGLQSIYHLQNLTIEDLGALKIPEQYRMTIWRGLQDLKQGHDYSTAQQLLRSSNAATISIGGSGELQRQRVMEAVHFRVRHTITIPNRGGPGGGPDEWADFGFDLPDCKARKQPIKEEFTEAEIH
